Source: patent US7803524 (dated 2010)

Experiment: Boc solid-phase peptide synthesis
Details: whole synthesis, HPLC

Sequence	final purity (method not given) [%]	purity (crude or final not stated) [%]
DQQLLGIWGCSGKLICTTAVPWN	87	
NQQRLNLWGCKGKLICYTSVKWN		81

Plain letter strings leave the end groups untold.
